Assay results published in PubChem BioAssay AID192 (DTP/NCI, 2004).
The list does not hold the whole screen: it gathers tests that were run many times, whatever their T/C, doses with no T/C, and many T/C values between a quarter and a half above the control. Other doses and runs of a compound stand elsewhere. T/C: endpoint of the treated group in % of that of the vehicle group. Some entries give survivors of the animals treated and no T/C: the source holds a T/C of zero for them, seemingly a mark for toxic or unscored doses. Some survivor counts are full or nearly so, which does not show that the dose was tolerated: the source hardly ever lists a survival T/C far under the control, and the zero likely stands for such cases as well. Survivors were counted at the toxicity check, usually on the fifth day, unless a day is given; later deaths do not show. Schedules are NCI's codes, read here as Q, the interval in days (D) or hours (H), X, the number of doses. Some entries hold several experiments; the results are listed from low to high. Where survival is the endpoint, this PubChem deposit counts one and a half times the control or more as active, and values a quarter to a half above the control carry no call in these data; other NCI protocols may use other cut-offs. Some T/C values are followed by the survivors on the day toxicity was checked, most often the fifth; without a count, all were alive then.

Tested on: BDF1 mice, B16 melanoma ip, median survival T/C
Assay: NCI In Vivo Anticancer Drug Screen. Data for tumor model B16 Melanoma (intraperitoneal) in B6D2F1 (BDF1) mice
Settings: T/C endpoint: median survival time, higher T/C = longer survival
In short: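 The ratio T/C compares compound-treated mice with vehicle-treated controls, using survival or tumor size as the endpoint in a transplantable tumor model.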

[1] = dose: 25.0 mg/kg/injection, schedule: Q01DX009 (ip), vehicle: Klucel (hydroxypropylcellulose) (HPC)
[2] = dose: 50.0 mg/kg/injection, schedule: Q01DX009 (ip), vehicle: Klucel (hydroxypropylcellulose) (HPC)
[3] = dose: 100.0 mg/kg/injection, schedule: Q01DX009 (ip), vehicle: saline with Tween-80
[4] = dose: 100.0 mg/kg/injection, schedule: Q01DX009 (ip), vehicle: Klucel (hydroxypropylcellulose) (HPC)
[5] = dose: 200.0 mg/kg/injection, schedule: Q01DX009 (ip), vehicle: Klucel (hydroxypropylcellulose) (HPC)
[6] = dose: 50.0 mg/kg/injection, schedule: Q01DX009 (ip), vehicle: saline
[7] = dose: 100.0 mg/kg/injection, schedule: Q01DX009 (ip), vehicle: saline
[8] = dose: 200.0 mg/kg/injection, schedule: Q01DX009 (ip), vehicle: saline
[9] = dose: 400.0 mg/kg/injection, schedule: Q01DX009 (ip), vehicle: saline
[10] = dose: 400.0 mg/kg/injection, schedule: Q01DX009 (ip), vehicle: Klucel (hydroxypropylcellulose) (HPC)
[11] = dose: 400.0 mg/kg/injection, schedule: Q01DX009 (ip), vehicle: saline with Tween-80

`O=C(Nc1cc(Cl)ccc1Cl)c1ccc(Cl)cc1Cl` was tested. Which survivor count (dose: 50.0 mg/kg/injection, schedule: Q04DX003 (ip), vehicle: saline with Tween-80) did it give?
The survivor count was 9 of 10.

What about the survivor count (dose: 100.0 mg/kg/injection, schedule: Q04DX003 (ip), vehicle: saline with Tween-80) of the same compound?
Its survivor count is 10 of 10.

What about the survivor count (dose: 200.0 mg/kg/injection, schedule: Q04DX003 (ip), vehicle: saline with Tween-80) of the same compound?
The survivor count was 10 of 10.

How did the survivor count [1] turn out when `CC(=O)[O][Hg][c]1c(C)c(C)c(C)c(C)c1C` was run?
The survivor count was 10 of 10.

What about the survivor count [2] of the same compound?
Its survivor count is 9 of 10.

What does the source list for `COc1ccc2c(NCCCCCCNc3c4ccccc4nc4cc(OC)ccc34)c3ccccc3nc2c1`?
survivor count (dose: 0.63 mg/kg/injection, schedule: Q01DX009 (ip), vehicle: lactic acid): 0 of 10; survivor count (dose: 1.25 mg/kg/injection, schedule: Q01DX009 (ip), vehicle: lactic acid): 0 of 10; survivor count (dose: 2.5 mg/kg/injection, schedule: Q01DX009 (ip), vehicle: lactic acid): 1 of 10; survivor count (dose: 5.0 mg/kg/injection, schedule: Q01DX009 (ip), vehicle: lactic acid): 0 of 10; survivor count (dose: 10.0 mg/kg/injection, schedule: Q01DX009 (ip), vehicle: lactic acid): 1 of 10; survivor count (dose: 15.0 mg/kg/injection, schedule: Q01DX009 (ip), vehicle: lactic acid): 0 of 10

Which results are given for `Nc1nc(=S)c2ncn(C3OC(COC(=O)c4ccccc4)C(OC(=O)c4ccccc4)C3OC(=O)c3ccccc3)c2[nH]1` (configuration not stated)?
T/C (dose: 12.5 mg/kg/injection, schedule: Q01DX009 (ip), vehicle: saline with Tween-80): 125 % of control; survivor count (dose: 50.0 mg/kg/injection, schedule: Q01DX009 (ip), vehicle: saline with Tween-80): 10 of 10; survivor count [3]: 10 of 10

With `Cc1ccc([N+](=O)[O-])c(O)c1[N+](=O)[O-]` as the compound, how does the survivor count [4] read?
The survivor count was 10 of 10.

For `CCCCC(CCC)(CCN)CCCC`, which survivor count (dose: 8.0 mg/kg/injection, schedule: Q01DX009 (ip), vehicle: saline sonified) is on record?
Its survivor count is 6 of 6.

Which results are given for `COc1cccc2c1C(=O)c1c(O)c3c(c(O)c1C2=O)C[C@@](O)(C(C)=O)C[C@@H]3OC1CC(N2CCOCC2C#N)C(O)C(C)O1` (some centres not stated)?
T/C (dose: 18.75 micrograms/kg/injection, schedule: Q01DX001 (ip), vehicle: distilled water + Tween-80): 129 % of control; T/C (dose: 37.5 micrograms/kg/injection, schedule: Q01DX001 (ip), vehicle: distilled water + Tween-80): 137 % of control; T/C (dose: 37.5 micrograms/kg/injection, schedule: Q01DX001 (ip), vehicle: water): 129 % of control; T/C (dose: 75.0 micrograms/kg/injection, schedule: Q01DX001 (ip), vehicle: distilled water + Tween-80): 134 % of control; T/C (dose: 150.0 micrograms/kg/injection, schedule: Q01DX001 (ip), vehicle: distilled water + Tween-80): 141 % of control; T/C (dose: 150.0 micrograms/kg/injection, schedule: Q01DX001 (ip), vehicle: water): 136 % of control; T/C (dose: 300.0 micrograms/kg/injection, schedule: Q01DX001 (ip), vehicle: water): 134 % of control

For `CCCCCCC1CCC(N)CC1` (configuration not stated), which survivor count [1] is on record?
The survivor count was 10 of 10.

And the survivor count [2]?
The survivor count was 10 of 10.

Which survivor count (dose: 800.0 mg/kg/injection, schedule: Q01DX009 (ip), vehicle: saline with Tween-80) does the source give for `Clc1ccc2c(c1)C([P+](c1ccccc1)(c1ccccc1)c1ccccc1)c1cc(Cl)cc(Cl)c1-2` (configuration not stated) here?
Its survivor count is 5 of 6.

With `O=C(O)c1ccc2c([N+](=O)[O-])cccc2n1` as the compound, how does the survivor count [5] read?
The survivor count was 0 of 10.

Which survivor count (dose: 0.2 mg/kg/injection, schedule: Q01DX009 (ip), vehicle: saline) does the source give for `[N-]=[N+]=CC(=O)CCC(N)C(=O)O` (configuration not stated) here?
Its survivor count is 10 of 10.

And the survivor count (dose: 0.25 mg/kg/injection, schedule: Q01DX009 (ip), vehicle: saline with Tween-80)?
Its survivor count is 6 of 6.

What about the survivor count (dose: 0.25 mg/kg/injection, schedule: Q01DX009 (ip), vehicle: saline) of the same compound?
The survivor count was 6 of 6.

And the survivor count (dose: 0.39 mg/kg/injection, schedule: Q01DX009 (ip), vehicle: saline)?
Its survivor count is 10 of 10.

And the survivor count (dose: 0.5 mg/kg/injection, schedule: Q01DX009 (ip), vehicle: saline)?
Its survivor count is 6 of 6.

And the survivor count (dose: 0.78 mg/kg/injection, schedule: Q01DX009 (ip), vehicle: saline)?
Its survivor count is 10 of 10.

What about the survivor count (dose: 1.0 mg/kg/injection, schedule: Q01DX009 (ip), vehicle: saline) of the same compound?
The survivor count was 6 of 6.

And the survivor count (dose: 1.56 mg/kg/injection, schedule: Q01DX009 (ip), vehicle: saline)?
Its survivor count is 6 of 10.

What about the survivor count (dose: 3.12 mg/kg/injection, schedule: Q01DX009 (ip), vehicle: saline) of the same compound?
The survivor count was 7 of 10 and 9 of 10.

What about the survivor count (dose: 6.25 mg/kg/injection, schedule: Q01DX009 (ip), vehicle: saline) of the same compound?
Its survivor count is 1 of 10 and 5 of 10.

And the survivor count (dose: 12.5 mg/kg/injection, schedule: Q01DX009 (ip), vehicle: saline)?
The survivor count was 1 of 10.

What about the survivor count (dose: 25.0 mg/kg/injection, schedule: Q01DX009 (ip), vehicle: saline) of the same compound?
The survivor count was 0 of 10 and 1 of 10.

What about the survivor count [6] of the same compound?
The survivor count was 0 of 10.

What about the survivor count [7] of the same compound?
Its survivor count is 0 of 10.

What about the survivor count (dose: 50.0 micrograms/kg/injection, schedule: Q01DX009 (ip), vehicle: saline) of the same compound?
Its survivor count is 10 of 10.

And the survivor count (dose: 90.0 micrograms/kg/injection, schedule: Q01DX009 (ip), vehicle: saline)?
Its survivor count is 10 of 10.

And the survivor count (dose: 100.0 micrograms/kg/injection, schedule: Q01DX009 (ip), vehicle: saline)?
The survivor count was 10 of 10.

And the survivor count (dose: 187.0 micrograms/kg/injection, schedule: Q01DX009 (ip), vehicle: saline)?
Its survivor count is 10 of 10.

And the survivor count (dose: 375.0 micrograms/kg/injection, schedule: Q01DX009 (ip), vehicle: saline)?
Its survivor count is 9 of 10.

And the survivor count (dose: 750.0 micrograms/kg/injection, schedule: Q01DX009 (ip), vehicle: saline)?
The survivor count was 10 of 10.

What about the survivor count (dose: 1500.0 micrograms/kg/injection, schedule: Q01DX009 (ip), vehicle: saline) of the same compound?
Its survivor count is 5 of 10.

What about the survivor count (dose: 3000.0 micrograms/kg/injection, schedule: Q01DX009 (ip), vehicle: saline) of the same compound?
Its survivor count is 0 of 10.

With `COc1cccc(/C=c2\[nH]c(=O)/c(=C/c3cccc(OC)c3OC)[nH]c2=O)c1OC` as the compound, how does the survivor count [4] read?
Its survivor count is 10 of 10.

What about the survivor count [5] of the same compound?
The survivor count was 10 of 10.

What does the source list for `CC(C)=CCNc1ncnc2c1ncn2C1OC(CO)C(O)C1O` (configuration not stated)?
survivor count [3]: 10 of 10; survivor count (dose: 200.0 mg/kg/injection, schedule: Q01DX009 (ip), vehicle: saline with Tween-80): 2 of 10 and 6 of 10; survivor count [8]: 6 of 10

With `COC(=O)C(N)CSCc1ccccc1` (configuration not stated) as the compound, how does the survivor count [9] read?
The survivor count was 5 of 10.

What does the source list for `COc1ccc2c(=O)cc(-c3ccccc3)[nH]c2c1`?
T/C [7]: 125 % of control [9 of 10 alive]; T/C [8]: 130 % of control

What does the source list for `COc1ccc(/C=C2\C(=O)OC(=O)\C2=C\c2ccc(OC)c(OC)c2)cc1OC`?
survivor count [2]: 10 of 10; survivor count [4]: 9 of 10; survivor count [5]: 7 of 10; survivor count [10]: 1 of 10

`C=CCNC(=S)Nc1cc(Cl)ccc1C` was tested. Which survivor count (dose: 200.0 mg/kg/injection, schedule: Q04DX003 (ip), vehicle: Klucel (hydroxypropylcellulose) (HPC)) did it give?
The survivor count was 8 of 10.

For `CC(C)c1ccc(NC(=O)Nc2cccc3ccccc23)cc1`, which survivor count [10] is on record?
Its survivor count is 6 of 6.

Which survivor count [11] does the source give for `CCCCNC(=O)Nc1ccc(C(=O)OCC(C)C)cc1` here?
Its survivor count is 10 of 10.

Which survivor count [1] does the source give for `C[n+]1ccc2cc(N)c3c4ccccc4sc3c2c1` here?
The survivor count was 10 of 10.

And the survivor count [2]?
The survivor count was 0 of 10.

What about the survivor count [6] of the same compound?
The survivor count was 0 of 10.

What about the survivor count [7] of the same compound?
The survivor count was 0 of 10.

And the survivor count [8]?
The survivor count was 0 of 10.

With `O=CN(SSN(C=O)C1CCCCC1)C1CCCCC1` as the compound, how does the survivor count [11] read?
The survivor count was 10 of 10.

Which survivor count (dose: 400.0 mg/kg/injection, schedule: Q01DX009 (ip), vehicle: saline sonified) does the source give for `Cc1cc(NC(=O)CCc2ccc(N3C(N)=NC(N)=NC3(C)C)cc2)ccc1S(=O)(=O)F` here?
The survivor count was 4 of 6.

For `N=C(N)SCc1cccc2c(=O)cc(-c3ccccc3)oc12`, which survivor count [9] is on record?
Its survivor count is 6 of 10.
